From the supplement of paper PMC6411743
± gives the standard deviation of the averaged measurements. Some of the results follow.

Amino acid sequences for entries named in this document (tags omitted). A change or cut given only in a name is not applied to a line headed by its entry.
UniProt Q14149: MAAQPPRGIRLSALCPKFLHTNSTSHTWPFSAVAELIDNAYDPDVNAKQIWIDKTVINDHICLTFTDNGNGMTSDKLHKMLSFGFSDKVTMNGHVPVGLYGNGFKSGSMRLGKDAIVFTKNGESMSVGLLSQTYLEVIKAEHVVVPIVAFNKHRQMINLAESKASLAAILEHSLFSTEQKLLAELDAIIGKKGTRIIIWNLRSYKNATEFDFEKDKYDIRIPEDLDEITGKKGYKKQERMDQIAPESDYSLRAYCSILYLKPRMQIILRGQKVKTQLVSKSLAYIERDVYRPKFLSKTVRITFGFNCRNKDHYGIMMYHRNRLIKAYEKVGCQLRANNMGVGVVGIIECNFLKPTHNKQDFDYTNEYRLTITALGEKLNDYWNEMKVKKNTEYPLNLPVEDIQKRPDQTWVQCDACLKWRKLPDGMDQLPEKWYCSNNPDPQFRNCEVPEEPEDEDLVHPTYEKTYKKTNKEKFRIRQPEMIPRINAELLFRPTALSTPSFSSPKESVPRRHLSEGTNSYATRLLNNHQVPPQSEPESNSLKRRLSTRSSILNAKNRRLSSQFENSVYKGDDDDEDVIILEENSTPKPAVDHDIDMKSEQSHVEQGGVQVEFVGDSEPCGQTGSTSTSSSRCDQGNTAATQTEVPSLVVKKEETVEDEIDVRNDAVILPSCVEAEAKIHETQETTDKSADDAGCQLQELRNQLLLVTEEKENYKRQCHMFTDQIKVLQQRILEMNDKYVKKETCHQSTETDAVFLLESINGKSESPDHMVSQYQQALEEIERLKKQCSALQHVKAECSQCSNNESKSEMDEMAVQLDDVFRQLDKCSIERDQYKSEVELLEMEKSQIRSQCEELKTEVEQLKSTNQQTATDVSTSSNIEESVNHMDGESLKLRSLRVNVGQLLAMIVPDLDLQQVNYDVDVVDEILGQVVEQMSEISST
UniProt Q12800: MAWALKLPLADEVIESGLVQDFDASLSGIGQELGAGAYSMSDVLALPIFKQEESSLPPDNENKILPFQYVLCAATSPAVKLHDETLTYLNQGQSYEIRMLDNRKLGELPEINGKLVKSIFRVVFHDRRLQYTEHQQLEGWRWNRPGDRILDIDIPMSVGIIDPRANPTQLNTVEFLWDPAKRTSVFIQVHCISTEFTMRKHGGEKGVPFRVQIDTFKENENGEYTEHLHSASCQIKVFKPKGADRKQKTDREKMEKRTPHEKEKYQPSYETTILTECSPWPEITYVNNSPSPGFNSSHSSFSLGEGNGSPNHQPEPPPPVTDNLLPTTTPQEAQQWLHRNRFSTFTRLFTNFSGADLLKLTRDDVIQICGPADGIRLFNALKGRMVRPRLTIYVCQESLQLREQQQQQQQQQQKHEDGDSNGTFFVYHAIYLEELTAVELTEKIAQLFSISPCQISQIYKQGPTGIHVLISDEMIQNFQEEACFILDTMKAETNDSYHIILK
UniProt Q13588: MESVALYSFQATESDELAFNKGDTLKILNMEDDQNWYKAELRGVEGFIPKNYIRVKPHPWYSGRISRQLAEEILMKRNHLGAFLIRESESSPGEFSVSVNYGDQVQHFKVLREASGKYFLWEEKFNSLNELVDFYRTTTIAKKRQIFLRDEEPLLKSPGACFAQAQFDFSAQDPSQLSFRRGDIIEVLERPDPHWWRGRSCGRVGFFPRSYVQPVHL
UniProt Q13769: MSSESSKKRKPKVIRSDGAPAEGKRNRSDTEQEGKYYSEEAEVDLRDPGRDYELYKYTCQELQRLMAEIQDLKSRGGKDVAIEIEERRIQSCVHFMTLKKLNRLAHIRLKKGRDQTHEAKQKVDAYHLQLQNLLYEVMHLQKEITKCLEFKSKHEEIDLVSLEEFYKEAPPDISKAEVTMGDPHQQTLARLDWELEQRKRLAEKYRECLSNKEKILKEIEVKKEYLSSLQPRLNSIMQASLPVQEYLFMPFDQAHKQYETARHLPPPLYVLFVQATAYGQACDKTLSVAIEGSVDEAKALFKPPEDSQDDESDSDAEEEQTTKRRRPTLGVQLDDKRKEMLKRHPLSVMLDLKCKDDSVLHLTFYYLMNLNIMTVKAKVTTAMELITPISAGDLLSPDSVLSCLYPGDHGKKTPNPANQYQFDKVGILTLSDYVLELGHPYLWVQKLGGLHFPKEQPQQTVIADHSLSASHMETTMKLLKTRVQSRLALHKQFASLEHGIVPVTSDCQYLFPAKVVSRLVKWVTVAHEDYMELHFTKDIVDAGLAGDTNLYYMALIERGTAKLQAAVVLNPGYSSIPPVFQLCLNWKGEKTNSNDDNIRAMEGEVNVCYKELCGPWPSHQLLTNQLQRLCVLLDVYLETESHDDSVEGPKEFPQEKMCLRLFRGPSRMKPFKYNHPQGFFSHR
UniProt Q14147: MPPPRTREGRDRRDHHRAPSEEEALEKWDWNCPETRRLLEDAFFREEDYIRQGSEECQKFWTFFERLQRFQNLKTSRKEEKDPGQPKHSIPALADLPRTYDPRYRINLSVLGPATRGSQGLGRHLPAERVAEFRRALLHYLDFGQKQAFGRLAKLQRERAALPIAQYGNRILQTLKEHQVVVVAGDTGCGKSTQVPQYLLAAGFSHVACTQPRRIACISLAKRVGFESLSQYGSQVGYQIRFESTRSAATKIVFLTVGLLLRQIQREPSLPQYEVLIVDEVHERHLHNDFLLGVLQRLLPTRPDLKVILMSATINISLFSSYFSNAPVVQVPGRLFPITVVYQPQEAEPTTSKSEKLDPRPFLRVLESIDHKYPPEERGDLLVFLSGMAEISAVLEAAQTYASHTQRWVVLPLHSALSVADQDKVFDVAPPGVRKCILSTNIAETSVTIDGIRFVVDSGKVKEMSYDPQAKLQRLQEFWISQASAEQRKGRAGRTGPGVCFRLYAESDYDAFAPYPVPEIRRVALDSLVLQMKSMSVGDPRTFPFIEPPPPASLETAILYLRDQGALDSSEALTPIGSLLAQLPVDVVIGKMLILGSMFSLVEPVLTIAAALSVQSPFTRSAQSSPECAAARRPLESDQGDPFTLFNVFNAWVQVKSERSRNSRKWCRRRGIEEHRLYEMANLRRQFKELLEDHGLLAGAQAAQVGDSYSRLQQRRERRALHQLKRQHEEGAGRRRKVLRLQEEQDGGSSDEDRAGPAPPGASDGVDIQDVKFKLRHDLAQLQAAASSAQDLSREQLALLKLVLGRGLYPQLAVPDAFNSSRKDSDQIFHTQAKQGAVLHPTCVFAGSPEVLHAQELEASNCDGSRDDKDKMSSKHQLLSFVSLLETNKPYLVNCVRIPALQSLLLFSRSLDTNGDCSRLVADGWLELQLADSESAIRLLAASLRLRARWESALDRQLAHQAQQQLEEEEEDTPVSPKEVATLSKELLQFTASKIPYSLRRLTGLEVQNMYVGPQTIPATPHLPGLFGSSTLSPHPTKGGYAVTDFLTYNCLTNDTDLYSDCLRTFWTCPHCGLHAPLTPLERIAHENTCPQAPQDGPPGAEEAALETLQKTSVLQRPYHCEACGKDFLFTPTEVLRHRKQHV
UniProt Q02252: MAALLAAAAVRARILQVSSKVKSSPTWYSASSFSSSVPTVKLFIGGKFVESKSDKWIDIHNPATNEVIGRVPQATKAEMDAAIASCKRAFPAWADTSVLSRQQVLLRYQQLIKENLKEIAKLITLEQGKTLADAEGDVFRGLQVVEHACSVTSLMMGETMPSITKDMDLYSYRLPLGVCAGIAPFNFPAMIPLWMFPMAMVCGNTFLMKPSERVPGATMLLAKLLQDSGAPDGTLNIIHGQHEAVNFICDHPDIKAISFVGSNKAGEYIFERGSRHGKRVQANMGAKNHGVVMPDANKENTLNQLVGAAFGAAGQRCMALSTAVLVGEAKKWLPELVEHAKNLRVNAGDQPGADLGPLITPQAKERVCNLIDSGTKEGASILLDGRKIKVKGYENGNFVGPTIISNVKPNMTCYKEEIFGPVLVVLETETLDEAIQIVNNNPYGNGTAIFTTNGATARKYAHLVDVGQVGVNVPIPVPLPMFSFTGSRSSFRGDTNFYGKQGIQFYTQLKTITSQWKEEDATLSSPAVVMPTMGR
UniProt Q14247: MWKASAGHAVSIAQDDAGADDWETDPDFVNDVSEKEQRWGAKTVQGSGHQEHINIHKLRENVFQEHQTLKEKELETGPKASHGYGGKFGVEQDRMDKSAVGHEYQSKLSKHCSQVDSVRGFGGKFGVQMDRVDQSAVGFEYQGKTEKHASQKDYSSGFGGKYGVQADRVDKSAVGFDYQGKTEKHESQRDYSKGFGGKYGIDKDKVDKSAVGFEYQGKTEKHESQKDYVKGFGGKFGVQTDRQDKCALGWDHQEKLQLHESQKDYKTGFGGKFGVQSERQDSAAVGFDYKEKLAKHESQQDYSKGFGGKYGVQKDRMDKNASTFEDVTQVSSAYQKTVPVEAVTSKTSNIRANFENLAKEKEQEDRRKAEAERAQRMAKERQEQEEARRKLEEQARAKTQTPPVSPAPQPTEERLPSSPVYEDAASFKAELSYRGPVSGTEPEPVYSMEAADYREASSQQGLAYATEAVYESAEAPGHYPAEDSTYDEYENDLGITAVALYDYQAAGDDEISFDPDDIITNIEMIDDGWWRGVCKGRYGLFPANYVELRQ
UniProt Q14289, whole entry, looked up: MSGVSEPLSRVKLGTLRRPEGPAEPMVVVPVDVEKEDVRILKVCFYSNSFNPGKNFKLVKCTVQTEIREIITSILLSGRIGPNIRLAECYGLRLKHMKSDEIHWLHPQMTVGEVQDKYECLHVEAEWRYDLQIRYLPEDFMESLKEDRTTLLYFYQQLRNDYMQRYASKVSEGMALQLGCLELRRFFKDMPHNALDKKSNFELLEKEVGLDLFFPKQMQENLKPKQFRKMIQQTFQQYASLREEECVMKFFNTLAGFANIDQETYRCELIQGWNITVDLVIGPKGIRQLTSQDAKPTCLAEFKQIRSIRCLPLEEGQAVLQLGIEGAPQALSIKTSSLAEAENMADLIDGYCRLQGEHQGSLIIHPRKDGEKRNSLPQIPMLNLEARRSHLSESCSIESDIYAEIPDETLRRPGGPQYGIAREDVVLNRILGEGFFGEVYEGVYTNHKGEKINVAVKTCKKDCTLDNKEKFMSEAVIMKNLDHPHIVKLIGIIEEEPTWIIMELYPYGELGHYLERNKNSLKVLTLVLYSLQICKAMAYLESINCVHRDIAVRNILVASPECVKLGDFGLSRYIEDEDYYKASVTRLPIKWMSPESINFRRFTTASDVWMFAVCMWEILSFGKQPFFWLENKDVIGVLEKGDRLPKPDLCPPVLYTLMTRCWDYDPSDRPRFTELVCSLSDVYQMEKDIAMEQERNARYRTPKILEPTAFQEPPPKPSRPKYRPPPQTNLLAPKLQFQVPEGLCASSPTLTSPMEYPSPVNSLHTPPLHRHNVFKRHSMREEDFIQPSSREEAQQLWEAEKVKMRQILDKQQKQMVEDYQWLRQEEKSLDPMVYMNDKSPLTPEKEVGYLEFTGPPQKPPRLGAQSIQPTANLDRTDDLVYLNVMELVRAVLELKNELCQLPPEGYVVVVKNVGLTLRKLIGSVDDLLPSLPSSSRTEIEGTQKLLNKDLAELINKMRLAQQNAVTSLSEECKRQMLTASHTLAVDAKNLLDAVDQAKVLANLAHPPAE
UniProt Q08752, whole entry: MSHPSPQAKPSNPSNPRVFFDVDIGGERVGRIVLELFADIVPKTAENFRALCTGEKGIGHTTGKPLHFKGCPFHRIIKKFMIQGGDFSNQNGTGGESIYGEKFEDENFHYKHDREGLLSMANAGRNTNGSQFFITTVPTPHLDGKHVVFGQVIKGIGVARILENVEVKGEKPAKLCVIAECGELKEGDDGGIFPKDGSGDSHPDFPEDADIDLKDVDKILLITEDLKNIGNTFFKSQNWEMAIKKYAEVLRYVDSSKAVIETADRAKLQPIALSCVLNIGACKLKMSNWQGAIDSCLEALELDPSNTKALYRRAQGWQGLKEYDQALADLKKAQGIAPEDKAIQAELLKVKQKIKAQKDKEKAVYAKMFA
UniProt Q01196, whole entry: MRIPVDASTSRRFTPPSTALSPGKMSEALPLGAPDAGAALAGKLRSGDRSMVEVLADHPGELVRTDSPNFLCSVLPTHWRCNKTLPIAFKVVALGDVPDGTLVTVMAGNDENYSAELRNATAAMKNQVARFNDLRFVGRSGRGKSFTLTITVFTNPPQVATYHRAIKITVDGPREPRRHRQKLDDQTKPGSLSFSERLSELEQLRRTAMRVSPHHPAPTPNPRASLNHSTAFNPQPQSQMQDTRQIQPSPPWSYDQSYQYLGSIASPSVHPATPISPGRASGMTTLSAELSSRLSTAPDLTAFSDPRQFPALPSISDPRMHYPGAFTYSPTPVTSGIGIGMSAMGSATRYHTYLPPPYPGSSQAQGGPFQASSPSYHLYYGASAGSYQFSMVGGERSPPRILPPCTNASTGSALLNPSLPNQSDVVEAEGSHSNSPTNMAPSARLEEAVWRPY

What follows are targets tested with Nc1nc2c(ncn2[C@@H]2O[C@H](COP(=O)(O)OP(=O)(O)OP(=O)(O)O)[C@@H](O)[C@H]2O)c(=O)[nH]1 [guanosine triphosphate] (assay: NP40-soluble protein abundance relative to vehicle (solubility fold change) (ratio); higher = more soluble protein in presence of GTP). Conditions: concentration: 0.1mM.
In short: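 Each value is a fold change relative to the detergent-processed vehicle, calculated per replicate from vsn-normalised intensities. Jurkat crude lysate received eight concentrations (0.1 to 10 mM) for 10 min at room temperature and 3 min at 37 °C, then was solubilised in 0.8% NP40 with benzonase (60 min, 4 °C). The ultracentrifuged supernatant was TMT-labelled and run by LC-MS/MS in three independent experiments.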
SOX4 (UniProt Q06945) showed an NP40-soluble protein abundance of 0.936 ± 0.066.
MORC3 (UniProt Q14149) showed an NP40-soluble protein abundance of 1.03 ± 0.081.
In the case of UniProt Q12872 and related entries, the NP40-soluble protein abundance is reported as 0.979 ± 0.031.
UniProt Q03933-2 gave an NP40-soluble protein abundance of 1.08 ± 0.03.
CD47 (UniProt Q08722) was tested, and the NP40-soluble protein abundance was 0.821 ± 0.028.
With UniProt Q14161 and related entries the NP40-soluble protein abundance was 0.956 ± 0.075.
With MTM1 (UniProt Q13496) the NP40-soluble protein abundance was 1.01 ± 0.078.
In the case of UniProt Q14677 and related entries, the NP40-soluble protein abundance is reported as 0.949 ± 0.049.
IK (UniProt Q13123) showed an NP40-soluble protein abundance of 0.955 ± 0.061.
UniProt Q14444 and related entries was tested, and the NP40-soluble protein abundance was 0.95 ± 0.057.
For UniProt Q12800 and related entries, the NP40-soluble protein abundance was 1.09 ± 0.043.
In the case of UniProt Q14139 and related entries, the NP40-soluble protein abundance is reported as 1.04 ± 0.056.
Target UniProt Q13868 and related entries has an NP40-soluble protein abundance of 0.973 ± 0.089.
UniProt Q13588 and related entries showed an NP40-soluble protein abundance of 1.06 ± 0.061.
For FHL3 (UniProt Q13643), the NP40-soluble protein abundance was 1.14 ± 0.13.
For UniProt Q14197, the NP40-soluble protein abundance was 1.07 ± 0.19.
In the case of ITK (UniProt Q08881), the NP40-soluble protein abundance is reported as 0.998 ± 0.085.
Work on SAFB2 (UniProt Q14151) yielded an NP40-soluble protein abundance of 0.948 ± 0.091.
UniProt Q01813 and related entries gave an NP40-soluble protein abundance of 1.05 ± 0.03.
UniProt Q02447-3 gave an NP40-soluble protein abundance of 0.995 ± 0.021.
UniProt Q14669-2|Q14669-3 was tested, and the NP40-soluble protein abundance was 1.04 ± 0.035.
Work on THOC5 (UniProt Q13769) yielded an NP40-soluble protein abundance of 1.18 ± 0.0098.
DHX34 (UniProt Q14147) showed an NP40-soluble protein abundance of 1.22 ± 0.17.
With NFX1 (UniProt Q12986) the NP40-soluble protein abundance was 1.24 ± 0.021.
Target UniProt Q02252 and related entries has an NP40-soluble protein abundance of 0.988 ± 0.021.
AHNAK (UniProt Q09666) gave an NP40-soluble protein abundance of 0.977 ± 0.031.
In the case of UniProt Q14247 and related entries, the NP40-soluble protein abundance is reported as 0.994 ± 0.06.
With MAD2L1 (UniProt Q13257) the NP40-soluble protein abundance was 1.04 ± 0.073.
With PMPCA (UniProt Q10713) the NP40-soluble protein abundance was 0.991 ± 0.017.
Work on UniProt Q14289-2|Q14289 yielded an NP40-soluble protein abundance of 0.996 ± 0.021.
Target UniProt Q13085 and related entries has an NP40-soluble protein abundance of 1.09 ± 0.08.
Work on ECH1 (UniProt Q13011) yielded an NP40-soluble protein abundance of 0.946 ± 0.039.
For PPID (UniProt Q08752), the NP40-soluble protein abundance was 0.937 ± 0.034.
Work on DNAJC3 (UniProt Q13217) yielded an NP40-soluble protein abundance of 0.969 ± 0.058.
UniProt Q01196-11|Q01196-8|Q01196 showed an NP40-soluble protein abundance of 0.994 ± 0.058.
RNASEL (UniProt Q05823) showed an NP40-soluble protein abundance of 1.08 ± 0.03.
Work on UniProt Q01968 and related entries yielded an NP40-soluble protein abundance of 1.22 ± 0.11.
